Data as given in patent US20200339702A1 (ULTRAHUMAN THIRTEEN, published 2020).
Where a chain is given by its changes, count along the chain named. Results are given in words; binding and its absence hold for the method and conditions named. Some binding calls cover weakened binding; strength is not graded here.

The chains behind the UniProt entries cited, without tags or fusion partners. Where a name states a change or a piece, a line headed by the entry shows the natural chain unless it says otherwise.
UniProt P21860: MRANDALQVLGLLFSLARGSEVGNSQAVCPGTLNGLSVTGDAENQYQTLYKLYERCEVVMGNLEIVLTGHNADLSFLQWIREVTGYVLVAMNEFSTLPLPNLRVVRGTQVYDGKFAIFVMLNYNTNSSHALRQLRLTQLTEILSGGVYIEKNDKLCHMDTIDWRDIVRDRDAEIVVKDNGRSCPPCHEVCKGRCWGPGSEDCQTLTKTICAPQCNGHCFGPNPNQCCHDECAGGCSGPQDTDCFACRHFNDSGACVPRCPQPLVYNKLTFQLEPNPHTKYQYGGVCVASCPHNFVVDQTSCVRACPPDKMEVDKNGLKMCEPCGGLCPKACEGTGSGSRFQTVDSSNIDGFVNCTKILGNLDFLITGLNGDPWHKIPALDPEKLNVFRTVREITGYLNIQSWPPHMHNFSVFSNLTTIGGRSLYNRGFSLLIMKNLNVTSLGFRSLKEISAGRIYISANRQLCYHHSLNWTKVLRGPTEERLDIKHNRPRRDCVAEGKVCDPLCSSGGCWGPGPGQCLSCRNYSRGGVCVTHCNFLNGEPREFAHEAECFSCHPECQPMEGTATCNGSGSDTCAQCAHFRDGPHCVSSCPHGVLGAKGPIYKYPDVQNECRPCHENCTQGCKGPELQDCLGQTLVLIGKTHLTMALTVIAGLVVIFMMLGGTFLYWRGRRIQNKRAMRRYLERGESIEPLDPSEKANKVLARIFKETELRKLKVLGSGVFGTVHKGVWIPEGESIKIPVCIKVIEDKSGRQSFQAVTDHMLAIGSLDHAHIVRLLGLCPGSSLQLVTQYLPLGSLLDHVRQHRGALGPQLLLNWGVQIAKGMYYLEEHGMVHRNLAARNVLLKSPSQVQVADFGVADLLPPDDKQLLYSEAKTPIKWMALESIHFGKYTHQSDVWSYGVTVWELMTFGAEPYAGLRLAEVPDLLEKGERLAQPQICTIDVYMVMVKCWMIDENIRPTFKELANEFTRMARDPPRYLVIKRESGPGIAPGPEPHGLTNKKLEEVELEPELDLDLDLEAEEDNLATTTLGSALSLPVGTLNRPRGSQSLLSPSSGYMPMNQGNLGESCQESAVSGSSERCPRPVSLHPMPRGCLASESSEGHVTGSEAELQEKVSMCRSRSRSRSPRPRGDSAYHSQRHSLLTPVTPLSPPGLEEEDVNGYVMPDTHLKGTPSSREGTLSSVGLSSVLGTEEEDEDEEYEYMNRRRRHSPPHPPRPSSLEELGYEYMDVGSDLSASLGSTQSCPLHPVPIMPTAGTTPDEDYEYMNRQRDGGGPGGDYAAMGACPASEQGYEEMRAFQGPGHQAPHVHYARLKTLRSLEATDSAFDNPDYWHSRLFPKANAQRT

What was measured:
[1] = biological target: T1, human ERBB3 His tagged, monomeric (human, UniProt P21860 20-643, biotinylated in the Alphascreen assays (sites not given)); assay: Alphascreen competition in solution, competitor h24C05 IgG1null, biotinylated human ERBB3-His
T1 construct: Used unbiotinylated as Biacore analyte and biotinylated in Alphascreen; treated as one molecule; also called human ERBB3-His (Acrobiosystems); biotinylated monomeric human ERBB3
Experimental: The AlphaScreen assay (Perkin Elmer) was performed in a 25 μl final volume in 384-well white microtiter plates (Greiner). The reaction buffer contained 1×PBS pH 7.3 (Oxoid, Cat. nr. BR0014G) and 0.05% (v/v) Tween® 20 (Sigma, Cat. nr. P9416). Purified IgG samples were titrated in three fold serial dilutions starting at 100 nM final concentration and incubated with biotinylated human ERBB3-His (Acrobiosystems) at 1 nM final concentration for 20 minutes at room temperature. The parental IgG and the anti-human IgG1 Acceptor beads at were added and the mix was incubated for 1 hour at room temperature. Followed by addition of the Streptavidin Donor beads and incubation for 30 minutes at room temperature. The emission of light was measured in the EnVision multilabel plate reader (Perkin Elmer) and analysed using the EnVision manager software. Values were reported as Counts Per Second (CPS) and corrected for crosstalk.

[2] = biological target: rhesus ERBB3 on transiently transfected HEK-293 cells (rhesus monkey (Macaca mulatta)); assay: flow cytometry, rhesus ERBB3-transfected HEK-293
[3] = biological target: rhesus ERBB3 on transiently transfected HEK-293 cells (rhesus monkey (Macaca mulatta)); assay: flow cytometry, rhesus ERBB3-transfected HEK-293 cells, IgG1null titrated
[4] = biological target: rhesus monkey ERBB3 human Fc tagged recombinant protein (rhesus monkey (Macaca mulatta)); assay: direct binding ELISA on coated rhesus ERBB3-Fc, IgG1null titrated
[5] = biological target: human ERBB3 human Fc tagged recombinant protein (human) (UniProt P21860); assay: direct binding ELISA on coated human ERBB3-Fc, IgG1null titrated
[6] = biological target: rhesus monkey ERBB3 human Fc tagged recombinant protein (rhesus monkey (Macaca mulatta)); assay: direct titration ELISA on rhesus ERBB3-Fc
[7] = biological target: human ERBB3 on transiently transfected HEK-293 cells (human) (UniProt P21860); assay: flow cytometry, human ERBB3-transfected HEK-293
[8] = biological target: human ERBB3 human Fc tagged recombinant protein (human) (UniProt P21860); assay: direct titration ELISA on human ERBB3-Fc
[9] = biological target: human ERBB3 on transiently transfected HEK-293 cells (human) (UniProt P21860); assay: flow cytometry, human ERBB3-transfected HEK-293 cells, IgG1null titrated

Measured: binding

B1: MH1 IgG1null (antibody, V domains shown)
VH: QVQLVESGGGLVKPGGSLRLSCAASGFTFSDYGMSWIRQAPGKGLEWVSTISDSGSYIYYADSVKGRFTISRDNAKNSLYLQMNSLRAEDTAVYYCARELGDYDGFDYWGQGTLVTVSS
VL: DIQMTQSPSSLSASVGDRVTITCRASQSISSYLSWYQQKPGKAPKLLIYAASSLQSGVPSRFSGSGSGTDFTLTISSLQPEDFATYYCLQYDSTPLTFGGGTKVEIK
notes: Designer (Maximally Humanized) clone; Human IgG1null and human Ckappa
binds: all assays above

B2: MH2 IgG1null (antibody, V domains shown)
VH: B1 VH with L100W, Y108F
VL: B1 VL
notes: as for B1
binds: all assays above

B3: TTP IgG1null (antibody, V domains shown)
VH: B1 VH with Y57T, L100Y
VL: B1 VL with S34N
notes: Designer clone; Human IgG1null and human Ckappa; also called Total Theoretically Possible clone
binds: all assays above

B4: MH4 IgG1null (antibody, V domains shown)
VH: B1 VH with L100W, Y108E
VL: B1 VL
notes: as for B1
binds: all assays above

B5: MH3 IgG1null (antibody, V domains shown)
VH: B1 VH with G33S, Y57T, L100W, Y108F
VL: B1 VL
notes: as for B1
binds: all assays above

B6: MH5 IgG1null (antibody, V domains shown)
VH: B1 VH with Y57T, L100Y
VL: B1 VL
notes: as for B1
binds: all assays above
